{"source": "patent US7335682B2", "about": "“Pharmaceutical compositions and methods for treating immune-response associated diseases of the surface and the anterior segment of the eye” (The Zhongshan Opthalmic Center, priority 2000, dated 2008)", "origin": "cited, not measured here", "conditions": "cited from earlier work", "data": [{"compound": "C=CC[C@@H]1/C=C(\\C)C[C@H](C)C[C@H](OC)[C@H]2O[C@@](O)(C(=O)C(=O)N3CCCC[C@H]3C(=O)O[C@H](/C(C)=C/[C@@H]3CC[C@@H](O)[C@H](OC)C3)[C@H](C)[C@@H](O)CC1=O)[C@H](C)C[C@@H]2OC.O", "note": "[tacrolimus, Tacrolimus]", "values": [{"measurement": "solubility in organic solvents", "setting": "methanol, ethanol, chloroform", "value": "readily dissolved"}, {"measurement": "solubility in water", "setting": "water", "value": "dissolves poorly"}]}]}
